Data as given in PubChem BioAssay AID1224830 (NIAID, 2016).

- Assay: 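Regulators of TLR4 signalling towards TNF-alpha in macrophage-like cells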 (primary screen)
- Cells: human THP-1 monocytic leukaemia cells, TNF dual-luciferase reporter clone, PMA-differentiated to macrophage-like cells
- Knock-down reagent: siRNA pool against human genes, 50 nM
- Time to read-out: LPS for 4 h, given about 3 days after siRNA transfection
- Treatment: bacterial LPS (TLR4 ligand), 10 ng/ml
- Detection: 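TNF firefly reporter luminescence divided by renilla, normalised to the plate median, then turned into a robust z-score for each replicate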
- Direction: TNF reporter robust z-score: higher = stronger TNF reporter response to LPS
- Rule for the call: 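a well is active when its z-score exceeds 2.8 or falls below -1.5; control wells carry no call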
The whole screen tested about 18,000 reagents; shown is a random part of them. Over the whole deposit, about 2,900 (16%) were called active. 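Calls are made per well; low scores hint the gene aids the LPS response, high scores that it dampens it.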 Entries without a mark were called inactive. Repeated entries: four replicate wells of each siRNA pool.

| target | TNF reporter robust z-score |
| --- | --- |
| XRCC4 (X-ray repair cross complementing 4) | 2.36 |
| XRCC4 (X-ray repair cross complementing 4) | 5.8 (active) |
| XRCC4 (X-ray repair cross complementing 4) | 1.64 |
| XRCC4 (X-ray repair cross complementing 4) | 2.01 |
| RWDD3 (RWD domain containing 3) | 0.08 |
| RWDD3 (RWD domain containing 3) | -0.14 |
| RWDD3 (RWD domain containing 3) | -0.35 |
| RWDD3 (RWD domain containing 3) | 1.17 |
| CIAO1 (cytosolic iron-sulfur assembly component 1) | 0.55 |
| CIAO1 (cytosolic iron-sulfur assembly component 1) | 0.82 |
| CIAO1 (cytosolic iron-sulfur assembly component 1) | 0.28 |
| CIAO1 (cytosolic iron-sulfur assembly component 1) | 0.81 |
| HTR1A (5-hydroxytryptamine receptor 1A) | -0.97 |
| HTR1A (5-hydroxytryptamine receptor 1A) | -1.17 |
| HTR1A (5-hydroxytryptamine receptor 1A) | -1.49 |
| HTR1A (5-hydroxytryptamine receptor 1A) | -1.03 |
| RBM6 (RNA binding motif protein 6) | -0.3 |
| RBM6 (RNA binding motif protein 6) | -0.13 |
| RBM6 (RNA binding motif protein 6) | -0.38 |
| RBM6 (RNA binding motif protein 6) | 0.3 |
| SECISBP2 (SECIS binding protein 2) | -0.99 |
| SECISBP2 (SECIS binding protein 2) | -1.09 |
| SECISBP2 (SECIS binding protein 2) | -1.27 |
| SECISBP2 (SECIS binding protein 2) | -1.12 |
| BFAR (bifunctional apoptosis regulator) | 1.68 |
| BFAR (bifunctional apoptosis regulator) | 1.93 |
| BFAR (bifunctional apoptosis regulator) | -1.34 |
| BFAR (bifunctional apoptosis regulator) | -0.58 |
| OR4E2 (olfactory receptor family 4 subfamily E member 2) | -0.99 |
| OR4E2 (olfactory receptor family 4 subfamily E member 2) | -1.14 |
| OR4E2 (olfactory receptor family 4 subfamily E member 2) | -0.52 |
| OR4E2 (olfactory receptor family 4 subfamily E member 2) | -0.02 |
| SLC39A7 | 0.62 |
| SLC39A7 | 0.6 |
| SLC39A7 | 0.65 |
| SLC39A7 | 1.24 |
| SPAG1 (sperm associated antigen 1) | -1.87 (active) |
| SPAG1 (sperm associated antigen 1) | -1.53 (active) |
| SPAG1 (sperm associated antigen 1) | -1.36 |
| SPAG1 (sperm associated antigen 1) | -1.77 (active) |
| HRH4 (histamine receptor H4) | -0.82 |
| HRH4 (histamine receptor H4) | -0.61 |
| HRH4 (histamine receptor H4) | -0.76 |
| HRH4 (histamine receptor H4) | -0.22 |
| CRLS1 (cardiolipin synthase 1) | 0.17 |
| CRLS1 (cardiolipin synthase 1) | 0.22 |
| CRLS1 (cardiolipin synthase 1) | 0.57 |
| CRLS1 (cardiolipin synthase 1) | 1.87 |
| TFPI2 (tissue factor pathway inhibitor 2) | 0.01 |
| TFPI2 (tissue factor pathway inhibitor 2) | 0.27 |
| TFPI2 (tissue factor pathway inhibitor 2) | 0.84 |
| SPATS1 (spermatogenesis associated serine rich 1) | -0.38 |
| SPATS1 (spermatogenesis associated serine rich 1) | 1.04 |
| SPATS1 (spermatogenesis associated serine rich 1) | -1.16 |
| SPATS1 (spermatogenesis associated serine rich 1) | -0.17 |
| OPN5 (opsin 5) | 0.84 |
| OPN5 (opsin 5) | 1.03 |
| OPN5 (opsin 5) | 0.99 |
| OPN5 (opsin 5) | 0.03 |
| KCTD14 (potassium channel tetramerization domain containing 14) | 0.25 |
| KCTD14 (potassium channel tetramerization domain containing 14) | -0.79 |
| KCTD14 (potassium channel tetramerization domain containing 14) | 0.36 |
| KCTD14 (potassium channel tetramerization domain containing 14) | -0.21 |
| LRRC46 (leucine rich repeat containing 46) | -1.57 (active) |
| LRRC46 (leucine rich repeat containing 46) | -1.29 |
| LRRC46 (leucine rich repeat containing 46) | -1.17 |
| LRRC46 (leucine rich repeat containing 46) | -1.59 (active) |
| RSU1 (Ras suppressor protein 1) | 0.11 |
| RSU1 (Ras suppressor protein 1) | 1.21 |
| RSU1 (Ras suppressor protein 1) | -0.1 |
| RSU1 (Ras suppressor protein 1) | -0.17 |
| OIT3 (oncoprotein induced transcript 3) | -0.35 |
| OIT3 (oncoprotein induced transcript 3) | -2.25 (active) |
| OIT3 (oncoprotein induced transcript 3) | -0.75 |
| OIT3 (oncoprotein induced transcript 3) | -0.18 |
